Results: the supplement of paper PMC10403144
The list shows a part of the results.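 Rule for the calls: active = mitochondrial OCR inhibition above 30% at 1 uM; inactive = 30% or less.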 Many values rest on one well or one pass, so single values are uncertain.

system: Toxoplasma gondii RH tachyzoites; experiment: inhibition of mitochondrial O2 consumption rate (% inhibition (relative to pre-injection OCR and atovaquone/antimycin A control)); higher = stronger ETC inhibition; settings: 1 µM; injection port (sequential injection order): A

Row | Compound | inhibition of mitochondrial O2 consumption rate
1 | CC(C)n1ncc2c(C(=O)NCC(c3cccs3)N3CCOCC3)cc(-c3ccccc3)nc21 (stereo not drawn) | inactive: -9.77
2 | Cc1nn2c(=O)c3c([nH]c2c1-c1ccc(Cl)cc1)CCCC3 | inactive: -7.47
3 | COc1ccccc1OCCCCn1c(C2CC2)nc2ccccc21 | inactive: 1.56
4 | NS(=O)(=O)c1cccc(-c2ccc3ncc(N4CCOCC4)nc3c2)c1 | inactive: -13.1
5 | COc1ccc(N(CCc2cccc(C)n2)C(C)=O)cc1 | inactive: -6.28
6 | Cc1ccc(S(=O)(=O)n2cc(-c3ccnc(N)c3)c3cc(Br)cnc32)cc1 | inactive: -7.7
7 | CCC(Sc1nc2ccccc2o1)C(=O)Nc1nccs1 (stereo not drawn) | inactive: -5.62
8 | COc1cncc(-c2cncc(N3CCN(c4ccncc4)CC3)n2)c1 | inactive: -8.75
9 | COC(=O)c1c(NC(=O)c2c(F)c(F)c(F)c(F)c2F)sc2c1CCCCC2 | inactive: -7.11

same assay, conditions: 1 µM; injection port (sequential injection order): B

Row | Compound | inhibition of mitochondrial O2 consumption rate
10 | NCC(c1cccs1)S(=O)(=O)c1ccccc1 (stereo not drawn) | inactive: -9.79
11 | CC(C)C(NC(=O)Cc1cccc2ccccc12)C(=O)Nc1cccc(C#N)c1 (stereo not drawn) | inactive: 3.72
12 | CC1CC1C(=O)NC1CCN(CC2(c3ccccc3)CCCCC2)CC1 (stereo not drawn) | inactive: 5.78
13 | C[C@H](C(N)=O)N1CCCC[C@@H]1c1ccc(OCc2cccc(F)c2)cc1 | inactive: -6.64
14 | CN1CCCN(C(c2ccccc2)c2ccc(Cl)cc2)CC1 (stereo not drawn) | inactive: -1.85
15 | Cc1ccc(-c2cc(C(=O)Nc3cccnc3)c3cc(Br)ccc3n2)cc1 | inactive: -27.2
16 | CC(C)(C)n1nc(Cc2cccc3ccccc23)c2c(N)ncnc21 | inactive: -12.9
17 | CC(=O)N1CCN(c2ccc(Oc3ccc(Cl)cc3O)cc2)CC1 | inactive: -11.9
18 | CC(=O)Oc1ccccc1C(=O)Nc1ncc([N+](=O)[O-])s1 | inactive: -12.9
19 | Clc1cccc(CO[C@H]2CCc3ccccc3[C@@H]2n2ccnn2)c1 | inactive: 4.39
20 | CC[C@H](CO)NCCN[C@H](CC)CO | inactive: -12.9
21 | NC(CC(=O)c1ccc(Cl)cc1Cl)C(Cl)(Cl)Cl (stereo not drawn) | inactive: -0.653
22 | CCOc1ccc(-c2nc(NC(=O)CS(=O)(=O)c3ccccc3)sc2C)cc1 | inactive: 6.88
23 | O=S(=O)(c1ccc(Cl)cc1)N1CCN(C(=S)NCc2ccco2)CC1 | inactive: -5.99

same assay, conditions: 1 µM; injection port (sequential injection order): C

Row | Compound | inhibition of mitochondrial O2 consumption rate
24 | NCCN(C(=O)c1ccc(Cl)cc1Cl)c1ccc(OCc2ccc(Cl)cc2)cc1 | inactive: -1.68
25 | CCc1nc2ccc(Cl)cn2c1C(=O)NCc1ccc(N2CCC(c3ccc(OC(F)(F)F)cc3)CC2)cc1 | inactive: -8.84
26 | COc1cc(C2=NCCN2)ccc1-n1cc(-c2cccc(C3=NCCN3)c2)nn1 | inactive: -14.1
27 | CC(C)n1nc(-c2cc3c(Cl)cccc3[nH]2)c2c(N)ncnc21 | inactive: -19.6
28 | O=C(Nc1ccc(C(F)(F)F)c(C(F)(F)F)c1)c1cc(Cl)ccc1O | inactive: -42.3
29 | CC(=O)NCC1CN(c2ccc(-c3ccc(CNCc4cn[nH]n4)cc3)c(F)c2)C(=O)O1 (stereo not drawn) | inactive: 4.14
30 | Cc1nc(-c2ccccn2)nc(NCCc2ccc(S(C)(=O)=O)cc2)c1Cl | inactive: -35.3
31 | CCOc1ccccc1NC(C)C(=O)Nc1cc(C(F)(F)F)ccc1N1CCOCC1 (stereo not drawn) | inactive: -10.5
32 | O=C(Nc1cccc(Cl)c1)c1cnc(N2CCN(c3ccncc3)CC2)c(Cl)c1 | inactive: -0.282
33 | CCCn1c(NC(=O)c2ccc3ccccc3n2)nc2ccccc21 | inactive: -15.6
34 | CC(c1cc(Cl)cc(Cl)c1)N(C)c1ncc2c(N)nc(N)nc2n1 (stereo not drawn) | inactive: -13.6
35 | OC[C@H]1O[C@@H](n2c3ccc(Cl)cc3c3c(-c4cc5ccccc5o4)ncnc32)C(O)[C@H]1O (stereo partly drawn) | inactive: -0.666
36 | CCCCOC(=O)Nc1cc2nc(C3CCCCC3)[nH]c2cc1N1CCCC1 | inactive: -30.7
37 | O=C(C1CCN(c2nnc(-n3cccc3)s2)CC1)N1CCC(Cc2ccccc2)CC1 | inactive: 3.56
38 | Cn1ccnc1CNCCS(=O)(=O)c1cccc(Nc2ccc(-c3cccc(F)c3)cn2)c1 | inactive: -24

A second format for some results above.
Row	Compound	inhibition of mitochondrial O2 consumption rate
37	O=C(C1CCN(c2nnc(-n3cccc3)s2)CC1)N1CCC(Cc2ccccc2)CC1	inactive: 3.56
38	Cn1ccnc1CNCCS(=O)(=O)c1cccc(Nc2ccc(-c3cccc(F)c3)cn2)c1	inactive: -24
